Measurements published in publication PMC10178846, “CERT1 mutations perturb human development by disrupting sphingolipid homeostasis” (The Journal of Clinical Investigation, 2023).
No constants are given. Whether binding was seen depends on the method and setting.

Molecular target: CERT START domain alone (aa 389-618) (human) (UniProt Q9Y5P4)
Experiment: SEC-MALS; size-exclusion chromatography coupled to multiangle light scattering of recombinant CERT constructs; absolute molar mass; both purified

- binding: no binding
B1: CERT START domain alone (aa 389-618) (domain or fragment, UniProt Q9Y5P4-1 389-618)
chain: DVHRFSSQVEEMVQNHMTYSLQDVGGDANWQLVVEEGEMKVYRREVEENGIVLDPLKATHAVKGVTGHEVCNYFWNVDVRNDWETTIENFHVVETLADNAIIIYQTHKRVWPASQRDVLYLSVIRKIPALTENDPETWIVCNFSVDHDSAPLNNRCVRAKINVAMICQTLVSPPEGNQEISRDNILCKITYVANVNPGGWAPASVLRAVAKREYPKFLKRFTSYVQEKTA
